PubChem BioAssay AID1159578 | Peter MacCallum Cancer Centre – 2015

Screen: 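Genome-wide hunt for genes controlling movement of lymphatic endothelial cells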 (primary screen)
System: human lymphatic endothelial cells
Reagent: siRNA pool against human genes, 40 nM
Duration: 48 h after transfection
Measured: 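Cells stained with dye and imaged after a scratch; covered wound area and nuclei counted, duplicates averaged, migration set against mock wells and turned into a robust z-score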
Reading the numbers: migration robust z-score: higher = faster migration into the scratch; migration relative to mock: higher = more scratch area covered than mock; nuclei per well: higher = more cells in the well
Rule for the call: 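Migration changed when robust z exceeds 2 or falls below -2 and mean nuclei number is at least 3300; otherwise not called changed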
Meaning of the calls: active = migration changed; inactive = no migration change, or too few cells
Shown is an unselected part of about 18,000 reagents. In the full data, about 1,030 (5.7%) are marked active. 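Inactive calls also include pools with fewer than 3300 nuclei, whose migration was not assessed.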 The raw values are shown without normalisation. No sequences are given here.

| Gene | migration robust z-score | migration class with cell-count check | migration relative to mock | nuclei per well, duplicate mean | Outcome |
| --- | --- | --- | --- | --- | --- |
| LINC00174 (long independently transcribed non-coding RNA 174) | -0.2 | migration z between -2 and 2; enough cells | 0.83 | 5184 | inactive |
| SLC38A10 | -0.01 | migration z between -2 and 2; enough cells | 0.88 | 5046 | inactive |
| TRIM75 (tripartite motif containing 75) | 1.4 | migration z between -2 and 2; enough cells | 1.08 | 6524 | inactive |
| EIF2AK2 (eukaryotic translation initiation factor 2 alpha kinase 2) | -0.24 | migration z between -2 and 2; enough cells | 0.76 | 6064 | inactive |
| TSNARE1 (t-SNARE domain containing 1) | -0.06 | migration z between -2 and 2; enough cells | 0.88 | 6402 | inactive |
| OLFML1 (olfactomedin like 1) | 0.06 | migration z between -2 and 2; enough cells | 0.9 | 6210 | inactive |
| TRAF3IP3 (TRAF3 interacting protein 3) | -0.44 | migration z between -2 and 2; enough cells | 0.77 | 6213 | inactive |
| OSCAR (osteoclast associated Ig-like receptor) | -0.88 | migration z between -2 and 2; enough cells | 0.66 | 5404 | inactive |
| DDX52 (DExD-box helicase 52) | 1.19 | migration z between -2 and 2; enough cells | 1.04 | 6199 | inactive |
| ERLEC1 (endoplasmic reticulum lectin 1) | -1.48 | migration z between -2 and 2; enough cells | 0.5 | 6678 | inactive |
| PRLHR (prolactin releasing hormone receptor) | -0.13 | migration z between -2 and 2; enough cells | 0.78 | 5068 | inactive |
| S100A1 (S100 calcium binding protein A1) | 1.36 | migration z between -2 and 2; enough cells | 1.23 | 4592 | inactive |
| IFI44 (interferon induced protein 44) | 0.64 | migration z between -2 and 2; enough cells | 1.05 | 6824 | inactive |
| FLACC1 (flagellum associated containing coiled-coil domains 1) | 0.62 | migration z between -2 and 2; enough cells | 1.04 | 6262 | inactive |
| CARD16 (caspase recruitment domain family member 16) | -0.25 | migration z between -2 and 2; enough cells | 0.82 | 6854 | inactive |
| PCDH9 (protocadherin 9) | 0.54 | migration z between -2 and 2; enough cells | 0.91 | 5463 | inactive |
| AGMO (alkylglycerol monooxygenase) | 0.86 | migration z between -2 and 2; enough cells | 0.97 | 6658 | inactive |
| PKIB (cAMP-dependent protein kinase inhibitor beta) | 0.29 | migration z between -2 and 2; enough cells | 0.86 | 4464 | inactive |
| C1QTNF4 (C1q and TNF related 4) | -0.18 | migration z between -2 and 2; enough cells | 0.84 | 5682 | inactive |
| AVPR1B (arginine vasopressin receptor 1B) | -1.35 | migration z between -2 and 2; enough cells | 0.54 | 5818 | inactive |
| ZNF703 (zinc finger protein 703) | -3.09 | migration z below -2; enough cells | 0.1 | 3375 | active |
| CNOT7 (CCR4-NOT transcription complex subunit 7) | 0.42 | migration z between -2 and 2; enough cells | 0.88 | 5644 | inactive |
| AHI1 (Abelson helper integration site 1) | -1.23 | migration z between -2 and 2; enough cells | 0.56 | 5260 | inactive |
| ZNF846 (zinc finger protein 846) | 1.67 | migration z between -2 and 2; enough cells | 1.33 | 5538 | inactive |
| GLA (galactosidase alpha) | 1.19 | migration z between -2 and 2; enough cells | 1.04 | 5177 | inactive |
| TMEM215 (transmembrane protein 215) | -0.05 | migration z between -2 and 2; enough cells | 0.87 | 5794 | inactive |
| KCNMB4 | 0.7 | migration z between -2 and 2; enough cells | 0.94 | 6753 | inactive |
| MAGT1 (magnesium transporter 1) | -1.19 | migration z between -2 and 2; enough cells | 0.58 | 6986 | inactive |
| CGB2 (chorionic gonadotropin subunit beta 2) | -1.44 | migration z between -2 and 2; enough cells | 0.51 | 6098 | inactive |
| SAMD9L (sterile alpha motif domain containing 9 like) | -0.32 | migration z between -2 and 2; enough cells | 0.8 | 6565 | inactive |
| PLPP6 (phospholipid phosphatase 6) | -0.24 | migration z between -2 and 2; enough cells | 0.76 | 3852 | inactive |
| FCRL3 (Fc receptor like 3) | -0.56 | migration z between -2 and 2; enough cells | 0.74 | 6122 | inactive |
| MYLK (myosin light chain kinase) | 0.24 | migration z between -2 and 2; enough cells | 0.85 | 4437 | inactive |
| FCHSD2 (FCH and double SH3 domains 2) | 0.1 | migration z between -2 and 2; enough cells | 0.92 | 4906 | inactive |
| ADAMTS1 (ADAM metallopeptidase with thrombospondin type 1 motif 1) | -0.78 | migration z between -2 and 2; enough cells | 0.66 | 5384 | inactive |
| MC1R (melanocortin 1 receptor) | 0.86 | migration z between -2 and 2; enough cells | 0.97 | 5517 | inactive |
| NAIF1 (nuclear apoptosis inducing factor 1) | -1.21 | migration z between -2 and 2; enough cells | 0.57 | 6300 | inactive |
| GSTM5 (glutathione S-transferase mu 5) | 1.19 | migration z between -2 and 2; enough cells | 1.04 | 5632 | inactive |
| PLXDC1 (plexin domain containing 1) | -0.26 | migration z between -2 and 2; enough cells | 0.82 | 5480 | inactive |
